Drawing on article doi:10.1101/2020.07.22.205203, this text covers binding for one substance.

By UniProt entry, the sequences of proteins in these tests, tags left out.
UniProt Q5SQI0: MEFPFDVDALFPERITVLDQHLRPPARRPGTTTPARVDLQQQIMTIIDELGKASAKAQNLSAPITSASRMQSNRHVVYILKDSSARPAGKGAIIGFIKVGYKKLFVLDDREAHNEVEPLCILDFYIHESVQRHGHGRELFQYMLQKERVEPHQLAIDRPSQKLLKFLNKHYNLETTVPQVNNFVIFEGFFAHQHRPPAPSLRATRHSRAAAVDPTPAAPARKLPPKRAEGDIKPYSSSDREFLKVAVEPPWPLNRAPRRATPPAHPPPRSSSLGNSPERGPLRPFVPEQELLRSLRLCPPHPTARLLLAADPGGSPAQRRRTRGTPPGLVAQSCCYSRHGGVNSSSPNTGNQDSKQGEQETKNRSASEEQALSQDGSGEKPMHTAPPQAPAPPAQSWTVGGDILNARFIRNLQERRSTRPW
UniProt Q9Y490: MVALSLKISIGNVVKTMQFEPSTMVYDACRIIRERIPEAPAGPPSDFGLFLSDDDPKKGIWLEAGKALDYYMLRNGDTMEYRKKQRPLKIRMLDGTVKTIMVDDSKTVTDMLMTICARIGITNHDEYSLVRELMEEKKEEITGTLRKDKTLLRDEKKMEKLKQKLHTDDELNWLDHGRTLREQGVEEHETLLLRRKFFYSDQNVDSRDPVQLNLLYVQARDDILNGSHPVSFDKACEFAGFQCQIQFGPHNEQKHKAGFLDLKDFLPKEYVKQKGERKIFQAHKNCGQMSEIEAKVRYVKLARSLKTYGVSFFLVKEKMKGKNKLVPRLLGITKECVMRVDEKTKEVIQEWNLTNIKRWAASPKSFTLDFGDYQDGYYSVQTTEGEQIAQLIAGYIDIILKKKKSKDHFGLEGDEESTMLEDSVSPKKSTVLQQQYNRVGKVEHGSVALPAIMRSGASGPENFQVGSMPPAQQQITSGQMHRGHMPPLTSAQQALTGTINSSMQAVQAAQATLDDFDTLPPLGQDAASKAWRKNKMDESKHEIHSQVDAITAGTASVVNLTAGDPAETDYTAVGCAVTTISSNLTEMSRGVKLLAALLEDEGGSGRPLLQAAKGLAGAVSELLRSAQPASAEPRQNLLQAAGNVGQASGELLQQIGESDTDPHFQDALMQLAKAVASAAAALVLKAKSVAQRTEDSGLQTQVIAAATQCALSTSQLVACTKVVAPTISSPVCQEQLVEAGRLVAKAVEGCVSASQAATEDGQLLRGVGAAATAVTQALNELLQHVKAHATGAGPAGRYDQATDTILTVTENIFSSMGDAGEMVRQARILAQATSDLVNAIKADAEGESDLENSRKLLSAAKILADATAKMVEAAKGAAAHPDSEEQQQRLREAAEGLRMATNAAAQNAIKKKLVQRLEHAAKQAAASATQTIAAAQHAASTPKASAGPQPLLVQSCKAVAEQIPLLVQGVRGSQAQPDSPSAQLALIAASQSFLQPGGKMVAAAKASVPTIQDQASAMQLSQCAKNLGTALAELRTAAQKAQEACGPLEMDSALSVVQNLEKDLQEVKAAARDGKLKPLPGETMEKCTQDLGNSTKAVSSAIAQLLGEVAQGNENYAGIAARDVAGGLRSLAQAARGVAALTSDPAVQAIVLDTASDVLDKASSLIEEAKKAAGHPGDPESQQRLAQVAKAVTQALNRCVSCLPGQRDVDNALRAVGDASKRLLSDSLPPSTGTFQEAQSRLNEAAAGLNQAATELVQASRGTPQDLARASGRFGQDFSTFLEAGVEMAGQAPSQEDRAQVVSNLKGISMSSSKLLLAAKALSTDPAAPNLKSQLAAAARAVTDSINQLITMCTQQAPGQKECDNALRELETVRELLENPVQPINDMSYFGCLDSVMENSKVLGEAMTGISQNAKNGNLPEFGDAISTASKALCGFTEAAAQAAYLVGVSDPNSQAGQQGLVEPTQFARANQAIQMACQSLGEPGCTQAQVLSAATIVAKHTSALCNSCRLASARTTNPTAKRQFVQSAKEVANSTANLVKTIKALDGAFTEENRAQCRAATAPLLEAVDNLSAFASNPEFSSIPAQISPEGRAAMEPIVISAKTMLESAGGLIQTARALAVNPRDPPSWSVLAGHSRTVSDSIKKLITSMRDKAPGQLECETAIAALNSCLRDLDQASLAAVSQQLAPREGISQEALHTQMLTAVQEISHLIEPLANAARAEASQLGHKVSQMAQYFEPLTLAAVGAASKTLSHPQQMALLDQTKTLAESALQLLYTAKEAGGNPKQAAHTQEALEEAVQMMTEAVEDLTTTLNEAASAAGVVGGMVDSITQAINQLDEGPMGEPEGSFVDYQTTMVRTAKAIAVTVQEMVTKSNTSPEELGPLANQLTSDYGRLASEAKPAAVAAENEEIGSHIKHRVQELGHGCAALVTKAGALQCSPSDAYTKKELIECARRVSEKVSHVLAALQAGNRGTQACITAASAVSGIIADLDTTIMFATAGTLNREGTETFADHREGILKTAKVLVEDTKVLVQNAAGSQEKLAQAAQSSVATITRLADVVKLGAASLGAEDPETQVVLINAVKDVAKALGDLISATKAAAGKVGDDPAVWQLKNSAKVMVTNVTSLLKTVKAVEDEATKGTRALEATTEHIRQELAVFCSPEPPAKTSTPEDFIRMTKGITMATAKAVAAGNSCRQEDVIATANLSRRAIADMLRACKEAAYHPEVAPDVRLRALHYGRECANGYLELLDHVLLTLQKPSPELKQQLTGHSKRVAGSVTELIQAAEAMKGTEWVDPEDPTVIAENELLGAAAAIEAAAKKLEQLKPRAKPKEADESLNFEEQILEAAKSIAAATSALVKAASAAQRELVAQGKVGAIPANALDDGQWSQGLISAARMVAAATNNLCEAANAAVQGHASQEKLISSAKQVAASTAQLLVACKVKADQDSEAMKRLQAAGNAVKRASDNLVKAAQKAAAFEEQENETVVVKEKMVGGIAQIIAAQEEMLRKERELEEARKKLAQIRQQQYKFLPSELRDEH

No constants are given. Whether binding was seen depends on the method and setting. Binding seen in cells or lysates may run through a third protein. A yes stands for co-enrichment or nearness to the bait. Other partners may have been found.

This assay addresses GFP-αTAT1 (alpha-tubulin acetyltransferase 1), expressed in HEK293 cells (UniProt Q5SQI0). Nature of the assay: affinity purification with mass spectrometry.

As for “Talin-1 (endogenous in HEK cells) (from UniProt Q9Y490 1-2541)”, the binding entry is “binds”.
